# According to the supplement of paper PMC7024190:
# The other results are listed elsewhere or left out. Repeats in this data set agree poorly, so a single value says little.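 A first-round screen of about ten thousand compounds sought those raising reporter output, using human embryonic kidney cells briefly transfected with a plasmid carrying a Renilla luciferase gene driven by the HSV-TK promoter.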
# System: HEK 293FT
# Test: log relative Renilla luciferase luminescence (reporter expression vs reference, reference not stated) (log (base not stated)); higher = higher recombinant reporter expression
# Conditions: 10 µM; time after transfection 48 h
# Method: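 HEK 293FT cells transiently transfected with pRL-TK (Renilla luciferase) were treated with compounds at 10 uM and luminescence was read about 42 h later. Values are log relative Renilla luminescence (log base and reference not stated). Single-pass screen; ICCB Known Bioactives library.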
row,Compound,log
1,CC(C)NCC(O)COc1cccc2ccccc12 (stereo not given) [Propranolol (S-)],-0.254
2,CN(C)CCCn1cc(C2=C(c3c[nH]c4ccccc34)C(=O)NC2=O)c2ccccc21,-0.905
3,O=C(O)CCCC=CCC1C(O)CC(O)C1C=CC(O)COc1cccc(Cl)c1 (stereo not given) [Cloprostenol Na],-0.0134
4,COc1cc(C=C(C#N)C(N)=O)cc(CSc2nc3ccccc3s2)c1O [Tyrphostin AG-825],0.146
5,CC[C@@H]1/C=C(\C)C[C@H](C)C[C@H](OC)[C@H]2O[C@@](O)(C(=O)C(=O)N3CCCC[C@H]3C(=O)O[C@H](/C(C)=C/[C@@H]3CC[C@@H](O)[C@H](OC)C3)[C@H](C)[C@@H](O)CC1=O)[C@H](C)C[C@@H]2OC [Ascomycin (FK-520)],-0.514
6,CN(C)C[C@H](O)Cn1c2ccc(Br)cc2c2cc(Br)ccc21 (racemic) [Wiskostatin],-0.477
7,O=c1cc(N2CCOCC2)oc2c(-c3ccccc3)cccc12,-0.272
8,NC1=NC2C(N=C(Br)N2C2O[C@H]3COP(=O)(O)O[C@@H]3[C@@H]2O)C(=O)N1 (stereo not given in full) [Bromo-cGMP [8-Bromo-cGMP]],-0.12
9,COC(=O)[C@@H](N)CSC/C=C(\C)CC/C=C(\C)CCC=C(C)C [S-Farnesyl-L-cysteine methyl ester],0.0907
10,CC(=O)NC(C)(C)C(=O)N1CCC[C@H]1C(=O)NC(C)(C)C(=O)N[C@@H](C)C(=O)NC(C)(C)C(=O)N[C@@H](C)C(=O)N[C@@H](CCC(N)=O)C(=O)NC(C)(C)C(=O)N[C@H](C(=O)NC(C)(C)C(=O)NCC(=O)N[C@@H](CC(C)C)C(=O)NC(C)(C)C(=O)N1CCC[C@H]1C(=O)N[C@H](C(=O)NC(C)(C)C(=O)NC(C)(C)C(=O)N[C@@H](CCC(=O)O)C(=O)N[C@@H](CCC(N)=O)C(=O)N[C@H](CO)Cc1ccccc1)C(C)C)C(C)C [Alamethicin],-0.183
11,Cc1ccc(S(=O)(=O)NC(=O)NN2CCCCCC2)cc1 [Tolazamide],0.0597
12,CC(C)[C@@H]1NC(=O)[C@H](Cc2ccccc2)NC(=O)[C@@H](CC(=O)O)NC(=O)CNC(=O)[C@H](CCCN=C(N)N)NC1=O [Cyclo [Arg-Gly-Asp-D-Phe-Val]],-0.151
13,O=[N+]([O-])c1cccc2c(Br)[nH]nc12 [Bromo-7-nitroindazole [3-Bromo-7-nitroindazole]],-0.267
14,COc1cc([C@@H]2c3cc4c(cc3[C@@H](O[C@@H]3O[C@@H]5CO[C@@H](C)O[C@H]5[C@H](O)[C@H]3O)[C@H]3COC(=O)[C@H]23)OCO4)cc(OC)c1O [Etoposide],-0.384
15,CCCCCCCCCCCCCCCC(=O)C1=C(O)[C@@H](CO)OC1=O,-0.00816
16,COc1c(C)c2c(c(O)c1C/C=C(\C)CCC(=O)O)C(=O)OC2 [Mycophenolic acid],-0.159
17,COc1cc2ncnc(Nc3cccc(Cl)c3)c2cc1OC,-0.447
18,CCCCCC(O)C=CC1C(O)CC(O)C1CC=CCCCC(=O)O (stereo not drawn) [8-EPI-prostaglandin F2a],-0.335
19,CCCCC[C@H](O)/C=C/[C@@H]1[C@H]2C/C(=C/CCCC(=O)O)O[C@H]2C[C@H]1O [Prostaglandin I2 Na],-0.0513
20,CCC(C)C(COC(Cc1ccccc1)C(=O)NC(CCS(C)(=O)=O)C(=O)OC(C)C)NCC(N)CS (stereo not given),0.325

row,Compound,log
1,C=C[C@H]1CN2CC[C@H]1C[C@H]2[C@H](O)c1ccnc2ccc(OC)cc12 [Quinine],0.101
2,N#CC(=Cc1ccc2[nH]ccc2c1)C(N)=C(C#N)C#N,-0.474
3,COc1cccc2c1C(=O)c1c(O)c3c(c(O)c1C2=O)C[C@@](O)(C(=O)CO)C[C@@H]3O[C@H]1C[C@H](N)[C@H](O)[C@H](C)O1 [Doxorubicin],-0.406
4,COCCCCCCCCCCCC(=O)O [12-Methoxydodecanoic acid],0.0772
5,Cc1ccc(S(=O)(=O)/C=C/C#N)cc1,0.378
6,Oc1cc(O)cc(/C=C/c2ccc(O)c(O)c2)c1 [Piceatannol],-0.818
7,CCCCCCCC/C=C\C/C=C\C/C=C\CCCC(=O)O [Mead acid (20:3 n-9)],-0.0143
8,CC(C)COCC(CN(Cc1ccccc1)c1ccccc1)N1CCCC1 (stereo not given) [Bepridil],0.0255
9,CC(=O)OCOC(c1cc([N+](=O)[O-])ccc1Oc1ccc(Br)cc1)P(=O)(OCOC(C)=O)OCOC(C)=O (stereo not given),-0.0343
10,CC(C)n1cnc2c(NCc3ccccc3)nc(NCCO)nc21 [N9-Isopropylolomoucine],0.344
11,CCCCC[C@H](O)/C=C/[C@H]1[C@H](O)CC(=O)[C@@H]1CCCCCCC(=O)O [Prostaglandin E1],-0.117
12,CCCCNC(=O)NS(=O)(=O)c1ccc(C)cc1 [Tolbutamide],0.285
13,Oc1ccc(-c2nc(-c3ccc(F)cc3)c(-c3ccncc3)[nH]2)cc1,-0.256
14,CCCCC/C=C\C/C=C\C/C=C\C=C\[C@@H](O)CCCC(=O)O,0.0772
15,CCCCCCCCCCCCC/C=C/[C@@H](O)[C@H](CO)NC(C)=O [C2 Ceramide],0.0671
16,O=C1CN(/N=C/c2ccc(-c3ccc([N+](=O)[O-])cc3)o2)C(=O)N1 [Dantrolene],-0.115
17,C=C[C@@]1(C)CC(=O)[C@]2(O)[C@@]3(C)[C@@H](O)CCC(C)(C)[C@@H]3[C@H](O)[C@H](OC(C)=O)[C@@]2(C)O1 [Forskolin],0.282
18,C=CC[C@@H]1/C=C(\C)C[C@H](C)C[C@H](OC)[C@H]2O[C@@](O)(C(=O)C(=O)N3CCCC[C@H]3C(=O)O[C@H](/C(C)=C/[C@@H]3CC[C@@H](O)[C@H](OC)C3)[C@H](C)[C@@H](O)CC1=O)[C@H](C)C[C@@H]2OC,0.316
19,COc1cc(CNC(=O)CCCC/C=C/C(C)C)ccc1O [Capsacin(E)],-0.391
20,CCN(CC)CCNC(=O)c1ccc(N)cc1 [Procainamide],0.191

# An excerpt from above in order of length of the SMILES, smallest number first.
row,Compound,log
8,CC(C)COCC(CN(Cc1ccccc1)c1ccccc1)N1CCCC1 (stereo not given) [Bepridil],0.0255
16,O=C1CN(/N=C/c2ccc(-c3ccc([N+](=O)[O-])cc3)o2)C(=O)N1 [Dantrolene],-0.115
1,C=C[C@H]1CN2CC[C@H]1C[C@H]2[C@H](O)c1ccnc2ccc(OC)cc12 [Quinine],0.101
